Test results as given in paper PMC4245959, “Molecular recognition of RhlB and RNase D in the Caulobacter crescentus RNA degradosome” (Nucleic Acids Research, 2014).
Results are given in words; binding and its absence hold for the method and conditions named. In cells and extracts the contact can be indirect. A result given as binding can be weak or reduced; the word gives no strength. One block for each molecule: values may come before it.

Chains of the proteins cited; added tags and fusions are not shown. Lines headed by an entry give the natural chain unless they say otherwise; changes in a name come on top.
UniProt Q9A7L8: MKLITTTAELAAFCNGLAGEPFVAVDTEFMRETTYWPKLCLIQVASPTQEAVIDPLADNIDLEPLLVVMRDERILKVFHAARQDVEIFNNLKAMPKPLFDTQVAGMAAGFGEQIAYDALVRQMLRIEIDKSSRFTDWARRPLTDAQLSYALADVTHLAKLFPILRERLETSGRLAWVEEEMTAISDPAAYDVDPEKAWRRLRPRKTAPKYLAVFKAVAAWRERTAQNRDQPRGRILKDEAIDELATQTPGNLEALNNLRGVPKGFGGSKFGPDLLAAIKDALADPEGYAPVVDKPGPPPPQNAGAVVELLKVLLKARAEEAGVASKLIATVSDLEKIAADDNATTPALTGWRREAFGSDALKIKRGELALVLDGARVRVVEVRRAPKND
UniProt Q9A779: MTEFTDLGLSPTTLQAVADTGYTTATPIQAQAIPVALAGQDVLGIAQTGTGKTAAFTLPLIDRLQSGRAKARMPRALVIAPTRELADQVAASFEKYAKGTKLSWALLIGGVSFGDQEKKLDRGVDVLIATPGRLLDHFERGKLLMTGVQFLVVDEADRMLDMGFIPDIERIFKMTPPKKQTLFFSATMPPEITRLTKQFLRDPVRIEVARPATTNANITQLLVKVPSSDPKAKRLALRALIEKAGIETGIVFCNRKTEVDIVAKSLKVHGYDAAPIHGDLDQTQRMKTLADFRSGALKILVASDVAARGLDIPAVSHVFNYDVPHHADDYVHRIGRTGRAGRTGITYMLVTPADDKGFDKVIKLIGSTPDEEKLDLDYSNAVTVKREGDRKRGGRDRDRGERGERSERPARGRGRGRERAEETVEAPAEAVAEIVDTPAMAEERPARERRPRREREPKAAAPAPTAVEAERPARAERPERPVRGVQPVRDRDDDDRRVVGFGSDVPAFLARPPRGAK
UniProt Q9A749: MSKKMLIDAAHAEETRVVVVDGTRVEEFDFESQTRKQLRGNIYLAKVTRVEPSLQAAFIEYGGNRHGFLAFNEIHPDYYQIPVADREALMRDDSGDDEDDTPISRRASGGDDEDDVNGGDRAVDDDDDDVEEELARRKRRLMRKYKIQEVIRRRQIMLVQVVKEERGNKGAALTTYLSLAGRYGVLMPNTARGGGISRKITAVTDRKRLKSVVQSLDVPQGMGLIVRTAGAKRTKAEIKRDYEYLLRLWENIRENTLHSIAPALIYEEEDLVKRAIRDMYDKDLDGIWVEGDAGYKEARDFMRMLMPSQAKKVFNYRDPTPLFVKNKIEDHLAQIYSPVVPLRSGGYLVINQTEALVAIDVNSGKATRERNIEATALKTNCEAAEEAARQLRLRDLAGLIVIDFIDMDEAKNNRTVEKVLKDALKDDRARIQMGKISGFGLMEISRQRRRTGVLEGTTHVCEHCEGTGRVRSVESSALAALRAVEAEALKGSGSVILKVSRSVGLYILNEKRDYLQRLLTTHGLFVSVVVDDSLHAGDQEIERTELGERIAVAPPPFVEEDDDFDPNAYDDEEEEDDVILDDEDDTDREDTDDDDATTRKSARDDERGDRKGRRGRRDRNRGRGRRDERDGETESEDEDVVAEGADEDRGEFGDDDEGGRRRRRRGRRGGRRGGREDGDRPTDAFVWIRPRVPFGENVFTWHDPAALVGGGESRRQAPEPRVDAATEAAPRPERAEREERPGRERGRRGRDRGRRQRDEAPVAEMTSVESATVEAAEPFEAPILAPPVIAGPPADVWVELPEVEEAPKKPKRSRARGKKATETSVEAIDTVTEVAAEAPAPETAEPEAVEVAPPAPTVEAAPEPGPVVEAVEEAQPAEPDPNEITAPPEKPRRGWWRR
UniProt Q99QM0: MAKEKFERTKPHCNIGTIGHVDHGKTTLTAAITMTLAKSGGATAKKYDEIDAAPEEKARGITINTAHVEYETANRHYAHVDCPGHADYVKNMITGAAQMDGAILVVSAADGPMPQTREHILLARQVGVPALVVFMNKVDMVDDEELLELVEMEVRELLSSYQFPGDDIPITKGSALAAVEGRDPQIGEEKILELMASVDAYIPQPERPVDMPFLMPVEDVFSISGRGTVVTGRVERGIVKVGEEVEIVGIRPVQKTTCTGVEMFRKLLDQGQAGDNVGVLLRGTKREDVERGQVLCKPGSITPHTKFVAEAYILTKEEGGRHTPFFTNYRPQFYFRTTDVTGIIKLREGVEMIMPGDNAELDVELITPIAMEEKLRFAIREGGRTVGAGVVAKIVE
UniProt Q9A299: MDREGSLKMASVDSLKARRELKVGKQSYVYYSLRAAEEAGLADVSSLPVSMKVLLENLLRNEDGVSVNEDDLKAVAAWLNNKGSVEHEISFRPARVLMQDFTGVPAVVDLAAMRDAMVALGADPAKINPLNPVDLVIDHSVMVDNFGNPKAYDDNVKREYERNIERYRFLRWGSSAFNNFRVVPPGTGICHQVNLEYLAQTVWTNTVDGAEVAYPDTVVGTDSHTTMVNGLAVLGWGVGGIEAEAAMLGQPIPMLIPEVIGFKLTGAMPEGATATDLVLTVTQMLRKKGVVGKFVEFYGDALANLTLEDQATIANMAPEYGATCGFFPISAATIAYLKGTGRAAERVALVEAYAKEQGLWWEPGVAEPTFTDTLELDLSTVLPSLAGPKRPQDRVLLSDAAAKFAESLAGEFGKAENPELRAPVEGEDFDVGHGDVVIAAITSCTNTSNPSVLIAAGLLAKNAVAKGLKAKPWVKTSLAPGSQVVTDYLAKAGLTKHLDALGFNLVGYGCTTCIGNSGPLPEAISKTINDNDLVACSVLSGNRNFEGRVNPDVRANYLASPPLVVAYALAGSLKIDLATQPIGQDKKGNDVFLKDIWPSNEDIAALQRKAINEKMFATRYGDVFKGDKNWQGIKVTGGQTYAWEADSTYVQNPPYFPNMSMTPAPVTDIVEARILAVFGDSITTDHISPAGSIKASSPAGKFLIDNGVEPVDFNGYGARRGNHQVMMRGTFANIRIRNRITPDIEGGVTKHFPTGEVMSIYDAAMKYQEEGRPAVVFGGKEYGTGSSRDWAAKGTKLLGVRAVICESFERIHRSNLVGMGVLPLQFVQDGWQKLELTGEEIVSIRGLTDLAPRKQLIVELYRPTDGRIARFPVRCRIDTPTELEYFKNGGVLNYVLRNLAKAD

Columns and labels:
[1] = molecular target: recombinant RNase D with an N-terminal hexa-histidine tag (Caulobacter crescentus (CB15)) (UniProt Q9A7L8); experiment: pull-down; ~0.5 mg purified 6xHis-RNase D on a His-select spin column; C. crescentus lysate passed over; washed with 20-mM Tris–HCl pH 7.5, 200-mM NaCl; eluted with 500-mM imidazole; SDS-PAGE; only the target purified
[2] = molecular target: RhlB residues 416–517 with N-terminal GST tag (Caulobacter crescentus) (UniProt Q9A779); experiment: pull-down; GST-RhlB(416–517) as bait with C. crescentus cell lysate; SDS-PAGE; only the target purified
[3] = molecular target: RNase E (cc1877), endogenous (Caulobacter crescentus (endogenous in C. crescentus lysate)) (UniProt Q9A749); experiment: co-IP; co-immunopurification from C. crescentus with an antibody raised against the S1 insert of RNase E; SDS-PAGE, MALDI mass spectrometry
[4] = molecular target: RNase E with a chromosomally encoded 3xFLAG tag on the N-terminus (Caulobacter crescentus); experiment: co-IP; co-immunopurification with anti-FLAG monoclonal antibody from a strain with chromosomally encoded 3xFLAG-RNase E; SDS-PAGE, MALDI mass spectrometry

binding [1]: binds
binding [2]: no binding
binding [3]: binds
Molecule: DEAD-box RNA helicase RhlB (cc1847), endogenous (from UniProt Q9A779) (enzyme)

binding [3]: no binding
Molecule: elongation factor Tu (TufA, cc3199), endogenous (from UniProt Q99QM0 1-396)

More lines, now with the values behind:

Molecule: aconitase (cc3667), endogenous (from UniProt Q9A299) (enzyme)
binding [1]: binds
binding [2]: binds
binding [3]: binds

Molecule: RNase E (cc1877), endogenous (from UniProt Q9A749) (enzyme)
binding [1]: binds
binding [2]: binds

B1: polynucleotide phosphorylase (PNPase, cc0034), endogenous (enzyme, UniProt Q9AC32 1-712)
chain: MFDIKRKTIEWGGKTLVLETGRIARQADGAVLATMGETVVLATAVFAKSQKPGQDFFPLTVNYQEKTFAAGKIPGGFFKREGRPSEKETLVSRLIDRPIRPLFVKGFKNEVQVVVTVLQHDLENDPDILGMVAASAALCLSGAPFMGPIGAARVGWVDGAYVLNPTLDEMKESKMDLVVAGTADAVMMVESEIQELSEEIVLGGVNFAHQQMQAVIDAIIDLAEHAAKEPFAFEPEDTDAIKAKMKDLVGADIAAAYKIQKKQDRYEAVGAAKKKAIAALGLSDENPTGYDPLKLGAIFKELEADVVRRGILDTGLRIDGRDVKTVRPILGEVGILPRTHGSALFTRGETQAIVVATLGTGDDEQFIDALEGTYKESFLLHYNFPPYSVGETGRMGSPGRREIGHGKLAWRALRPMLPTKEDFPYTIRLVSEITESNGSSSMATVCGSSLAMMDAGVPLVRPVSGIAMGLILEQDGFAVLSDILGDEDHLGDMDFKVAGTSEGLTSLQMDIKIAGITPAIMEQALAQAKEGRAHILGEMNKAMDAPRADVGDFAPKIETINIPTDKIREVIGSGGKVIREIVATTGAKVDINDDGVVKVSASDGAKIKAAIDWIKSITDEAEVGKIYDGKVVKVVDFGAFVNFFGAKDGLVHVSQISNERVAKPSDVLKEGQMVKVKLLGFDDRGKTKLSMKVVDQETGEDLSKKEAAAEEA
binding [1]: binds
binding [2]: binds
binding [3]: binds
binding [4]: binds
